Data published in patent US6410558B1, “Fungicides for the control of take-all disease of plants” (Monsanto Technology LLC, priority 1991, dated 2002).
Some results were stated once for a whole list of compounds, not compound by compound.

Each compound was assayed on Gg (assay: Field Tests: seed treatment of wheat and barley in previously infested fields). Conditions: mixed with wheat and barley seed at 0.01 to 50 g active ingredient per kg of seed.
Assay type: in vivo, Gaeumannomyces graminis

| Structure (SMILES) | incidence of Gg in previously infested fields compared to check fields seeded with untreated seed |
| --- | --- |
| CCN(CC)C(=O)c1c(CF)cccc1[Si](C)(C)C [Example 98, N,N-Diethyl-2-(fluoromethyl)-6-(trimethylsilyl)benzamide] | reduce the incidence of Gg |
| CCN(CC)C(=O)c1c(Cl)ccc(F)c1[Si](C)(C)C [Example 38, 6-Chloro-N,N-diethyl-3-fluoro-2-(trimethylsilyl)benzamide] | reduce the incidence of Gg |
| CCNC(=O)c1c(Cl)ccc(N(C)C)c1[Si](C)(C)C [Example 237, 6-Chloro-3-(dimethylamino)-N-ethyl-2-(trimethylsilyl)benzamide] | reduce the incidence of Gg |
| CSNC(=O)c1c(Cl)cccc1[Si](C)(C)C [Example 174, 2-Chloro-N-(methylthio)-6-(trimethylsilyl)benzamide] | reduce the incidence of Gg |
| C[Si](C)(C)c1cccc(Cl)c1C(=O)NCCO [Example 27, 2-Chloro-N-(2-hydroxyethyl)-6-(trimethylsilyl)benzamide] | reduce the incidence of Gg |
| CCN(CC)C(=O)c1c(C)ccc(F)c1[Si](C)(C)C(C)(C)C [Example 10, 2-[(1,1-Dimethylethyl)dimethylsilyl]-N,N-diethyl-3-fluoro-6-methylbenzamide] | reduce the incidence of Gg |
| C[Si](C)(C)c1cccc(I)c1C(=O)NC1CC1 [Example 209, N-Cyclopropyl-2-iodo-6-(trimethylsilyl)benzamide] | reduce the incidence of Gg |
| CCN(CC)C(=S)c1ccc(C)c(F)c1[Si](C)(C)C [Example 75, N,N-Diethyl-3-fluoro-4-methyl-2-(trimethylsilyl)thiobenzamide] | reduce the incidence of Gg |
| C=C[Si](C)(C)c1cccc(Cl)c1C(=O)NCC [Example 87, N-Ethyl-2-chloro-6-(ethenyldimethylsilyl)benzamide] | reduce the incidence of Gg |
| CN(C)NC(=O)c1c([Si](C)(C)C)ccc(Cl)c1Cl [Example 205, 2,3-Dichloro-6-(trimethylsilyl)benzoic acid, 2,2-dimethylhydrazide] | reduce the incidence of Gg |
| CCN(CC)C(=O)c1c([Si](C)(C)C)ccc(F)c1Cl [Example 88, N,N-Diethyl-2-chloro-3-fluoro-6-(trimethylsilyl)benzamide] | reduce the incidence of Gg |
| CCN(CC)C(=O)c1c(C)cccc1C(C)(C)C [Example 6, 2-(1,1-Dimethylethyl)-N,N-diethyl-6-methylbenzamide] | reduce the incidence of Gg |
| CCN(C(=O)c1c(Cl)cccc1[Si](C)(C)C)c1ccccc1 [Example 24, 2-Chloro-N-ethyl-N-phenyl-6-(trimethylsilyl)benzamide] | reduce the incidence of Gg |
| C#CCNC(=O)c1c(Cl)cccc1[Si](C)(C)C [Example 108, 2-Chloro-N-(2-propynyl)-6-(trimethylsilyl)benzamide] | reduce the incidence of Gg |
| CC[C@@H](C)NC(=O)c1c(Cl)cccc1[Si](C)(C)C [Example 151, 2-Chloro-N-(1-methylpropyl)-6-(trimethylsilyl)benzamide, (r)-] | reduce the incidence of Gg |
| CCCSC(=O)c1c(Cl)cccc1[Si](C)(C)C [Example 79, 2-Chloro-6-(trimethylsilyl)-benzenecarbothioic acid, S-propyl ester] | reduce the incidence of Gg |
| CCNC(=O)c1sc(C)c(C)c1[Si](C)(C)C [Example 286, 4,5-Dimethyl-N-ethyl-3-(trimethylsilyl)-2-thiophenecarboxamide] | reduce the incidence of Gg |
| CCNC(=O)c1cccn1C[Si](C)(C)C [Example 253, N-Ethyl-1-[(trimethylsilyl)methyl]-1H-pyrrole-2-carboxamide] | reduce the incidence of Gg |
| CCNC(=O)c1c(Br)cccc1[Si](C)(C)C [Example 176, 2-Bromo-N-ethyl-6-(trimethylsilyl)benzamide] | reduce the incidence of Gg |
| CCNC(=O)c1sc(C=O)cc1[Si](C)(C)C [Example 258, N-Ethyl-5-formyl-3-(trimethylsilyl)-2-thiophenecarboxamide] | reduce the incidence of Gg |
| CCNC(=O)c1c([Si](C)(C)C)ccc(Cl)c1Cl [Example 203, 2,3-Dichloro-N-ethyl-6-(trimethylsilyl)benzamide] | reduce the incidence of Gg |

| Structure (SMILES) | incidence of Gg in previously infested fields compared to check fields seeded with untreated seed |
| --- | --- |
| C[Si](C)(C)c1cccc(Cl)c1C(=O)N1CCOCC1 [Example 132, N-[2-Chloro-6-(trimethylsilyl)benzoyl]-morpholine] | reduce the incidence of Gg |
| CCN(CC)C(=O)c1c(Cl)cccc1[Si](C)(C)C [Example 39, 2-Chloro-N,N-diethyl-6-(trimethylsilyl)benzamide] | reduce the incidence of Gg |
| CCC(C)NC(=O)c1c(Cl)cccc1[Si](C)(C)C (centres unmarked) [Example 28, 2-Chloro-N-(1-methylpropyl)-6-(trimethylsilyl)benzamide] | reduce the incidence of Gg |
| CCN(C(=O)c1ccccc1[Si](C)(C)C)C(OC)C(C)(C)C (centres unmarked) [Example 187, N-Ethyl-N-(1-methoxy-2,2-dimethylpropyl)-2-(trimethylsilyl)benzamide] | reduce the incidence of Gg |
| C[Si](C)(C)c1cccc(Cl)c1C(=O)NCc1ccncc1 [Example 145, 2-Chloro-N-(4-pyridinylmethyl)-6-(trimethylsilyl)benzamide] | reduce the incidence of Gg |
| Cc1ccccc1NC(=O)c1c(Cl)cccc1[Si](C)(C)C [Example 33, 2-Chloro-N-(2-methylphenyl)-6-(trimethylsilyl)benzamide] | reduce the incidence of Gg |
| CCNC(=O)c1c(Cl)ccc(Br)c1[Si](C)(C)C [Example 232, 3-Bromo-6-chloro-N-ethyl-2-(trimethylsilyl)benzamide] | reduce the incidence of Gg |
| CCCNC(=O)c1c(Cl)cccc1[Si](C)(C)C [Example 26, 2-Chloro-N-propyl-6-(trimethylsilyl)benzamide] | reduce the incidence of Gg |
| CC(C)NC(=O)c1c(F)cccc1[S+]([O-])C(C)(C)C (centres unmarked) [Example 196, N-(1-Methylethyl)-2-[(1,1-dimethylethyl)sulfinyl]-6-fluorobenzamide] | reduce the incidence of Gg |
| CCNC(=O)c1c(Cl)cccc1-c1ccc2ccccc2c1 [Example 122, 2-Chloro-N-ethyl-6-(2-naphthalenyl)benzamide] | reduce the incidence of Gg |
| CCN(CC)C(=O)c1c(CF)ccc(F)c1[Si](C)(C)C [Example 55, N,N-Diethyl-3-fluoro-6-(fluoromethyl)-2-(trimethylsilyl)benzamide] | reduce the incidence of Gg |
| CCNC(=O)c1c(C(F)(F)F)cccc1[Si](C)(C)C [Example 82, N-Ethyl-2-(trifluoromethyl)-6-(trimethylsilyl)benzamide] | reduce the incidence of Gg |
| CCN(CC)C(=O)c1c(CO)ccc(F)c1[Si](C)(C)C [Example 54, N,N-Diethyl-3-fluoro-6-(hydroxymethyl)-2-(trimethylsilyl)benzamide] | reduce the incidence of Gg |
| CCNC(=O)c1cc(N=C=S)ccc1[Si](C)(C)C [Example 245, N-Ethyl-5-isothiocyanato-2-(trimethylsilyl)benzamide] | reduce the incidence of Gg |
| CCNC(=O)c1cc(C(F)(F)F)ccc1[Si](C)(C)C [Example 225, N-Ethyl-5-(trifluoromethyl)-2-(trimethylsilyl)benzamide] | reduce the incidence of Gg |
| CCNC(=O)c1c([Si](C)(C)C)ccc(C(=O)OC)c1Cl [Example 244, 2-Chloro-3-[(ethylamino)carbonyl]-4-(trimethylsilyl)benzoic acid, methyl ester] | reduce the incidence of Gg |
| CCNC(=O)c1cnn(C)c1[Si](C)(C)C [Example 288, N-Ethyl-1-methyl-5-(trimethylsilyl)-1H-pyrazole-4-carboxamide] | reduce the incidence of Gg |
| CCNC(=O)c1c([Si](C)(C)C)sc(C)c1C [Example 271, 4,5-Dimethyl-N-ethyl-2-(trimethylsilyl)-3-thiophenecarboxamide] | reduce the incidence of Gg |
| CC1C=CC(C)N1C(=O)c1c(Cl)cccc1[Si](C)(C)C (centres unmarked) [Example 149, 1-[2-Chloro-6-(trimethylsilyl)benzoyl)-2,5-dihydro-2,5-dimethyl-1H-pyrrole] | reduce the incidence of Gg |
| CCNC(=O)c1c(Cl)cccc1[Si](C)(C)CC [Example 212, 2-Chloro-N-ethyl-6-(ethyldimethylsilyl)benzamide] | reduce the incidence of Gg |
